Results from article PMC8986865.
No constants are given. Whether binding was seen depends on the method and setting. In cells and extracts the contact can be indirect. Some binding calls cover weakened binding; strength is not graded here. For some assays here: Tags and fused reporters may be left off the sequences shown.

Protein sequences, listed by entry. Tags and fused reporters are not part of them.
UniProt P38398: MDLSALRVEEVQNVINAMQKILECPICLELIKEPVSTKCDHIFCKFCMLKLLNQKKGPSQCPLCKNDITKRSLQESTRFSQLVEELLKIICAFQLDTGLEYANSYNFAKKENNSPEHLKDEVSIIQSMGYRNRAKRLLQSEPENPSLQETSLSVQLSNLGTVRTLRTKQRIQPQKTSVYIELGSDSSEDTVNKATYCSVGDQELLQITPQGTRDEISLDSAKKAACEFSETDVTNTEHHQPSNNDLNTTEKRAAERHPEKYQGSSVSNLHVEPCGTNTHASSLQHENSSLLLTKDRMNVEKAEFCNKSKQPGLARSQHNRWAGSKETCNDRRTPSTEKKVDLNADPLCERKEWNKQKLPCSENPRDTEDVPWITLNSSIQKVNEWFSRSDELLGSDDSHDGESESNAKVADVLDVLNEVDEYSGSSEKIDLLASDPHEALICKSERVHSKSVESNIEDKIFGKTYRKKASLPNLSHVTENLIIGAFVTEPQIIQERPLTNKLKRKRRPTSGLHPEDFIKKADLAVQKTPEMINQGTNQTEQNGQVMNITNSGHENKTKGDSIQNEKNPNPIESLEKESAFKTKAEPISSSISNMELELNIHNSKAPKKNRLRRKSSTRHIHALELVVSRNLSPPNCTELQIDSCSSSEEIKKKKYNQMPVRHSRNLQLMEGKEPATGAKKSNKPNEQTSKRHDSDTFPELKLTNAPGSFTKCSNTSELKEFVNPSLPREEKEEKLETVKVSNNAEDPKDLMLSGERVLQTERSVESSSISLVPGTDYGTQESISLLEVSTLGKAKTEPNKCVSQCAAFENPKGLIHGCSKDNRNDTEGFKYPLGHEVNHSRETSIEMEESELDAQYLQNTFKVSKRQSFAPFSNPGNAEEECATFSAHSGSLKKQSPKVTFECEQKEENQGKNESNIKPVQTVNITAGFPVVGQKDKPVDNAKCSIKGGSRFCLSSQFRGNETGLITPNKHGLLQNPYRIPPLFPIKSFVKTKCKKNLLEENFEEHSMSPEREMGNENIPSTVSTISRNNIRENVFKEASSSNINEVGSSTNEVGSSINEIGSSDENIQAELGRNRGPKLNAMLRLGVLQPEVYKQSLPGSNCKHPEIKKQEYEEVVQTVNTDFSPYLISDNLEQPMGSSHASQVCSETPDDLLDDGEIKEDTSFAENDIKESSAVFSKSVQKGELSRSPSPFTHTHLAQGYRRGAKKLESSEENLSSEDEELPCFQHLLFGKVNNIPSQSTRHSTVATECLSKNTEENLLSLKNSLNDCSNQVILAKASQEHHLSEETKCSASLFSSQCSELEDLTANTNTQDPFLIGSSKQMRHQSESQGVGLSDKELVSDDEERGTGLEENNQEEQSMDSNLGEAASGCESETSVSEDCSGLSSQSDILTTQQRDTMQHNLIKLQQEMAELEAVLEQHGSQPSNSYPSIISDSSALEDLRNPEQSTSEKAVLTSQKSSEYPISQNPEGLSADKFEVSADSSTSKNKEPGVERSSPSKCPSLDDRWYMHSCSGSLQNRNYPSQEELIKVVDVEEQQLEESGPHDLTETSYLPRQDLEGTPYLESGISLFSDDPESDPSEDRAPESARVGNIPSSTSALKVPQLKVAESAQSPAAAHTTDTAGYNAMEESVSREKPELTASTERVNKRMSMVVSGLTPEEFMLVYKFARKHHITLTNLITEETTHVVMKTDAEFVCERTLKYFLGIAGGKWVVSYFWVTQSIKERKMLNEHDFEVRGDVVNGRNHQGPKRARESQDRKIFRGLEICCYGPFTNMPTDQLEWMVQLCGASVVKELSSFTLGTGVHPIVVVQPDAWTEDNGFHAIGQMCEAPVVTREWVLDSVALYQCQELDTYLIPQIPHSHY

Key:
[1] = target: BRCA1, endogenous (human (endogenous in HeLa)) (UniProt P38398); assay: co-IP; HeLa whole-cell lysates (RIPA buffer), cells untreated or 5 Gy IR for 3 h; immunoprecipitation with anti-HspBP1 (Fig. 3A) or anti-BRCA1 (Fig. 3B), western blot
full length HA-BRCA1 = full length HA-BRCA1 (UniProt P38398); assay: co-IP; HEK293T co-transfected with HA-BRCA1 and GFP-HspBP1, 5 Gy IR for 3 h; whole-cell lysates, immunoprecipitation with anti-HA, western blot

| binding [1] | binding (full length HA-BRCA1) | Binder |
| --- | --- | --- |
| binds |  | Hsp70-binding protein 1 (HspBP1), endogenous (protein, UniProt Q9NZL4 1-359) MSDEGSRGSRLPLALPPASQGCSSGGGGGGSSAGGSGNSRPPRNLQGLLQMAITAGSEEPDPPPEPMSEERRQWLQEAMSAAFRGQREEVEQMKSCLRVLSQPMPPTAGEAEQAADQQEREGALELLADLCENMDNAADFCQLSGMHLLVGRYLEAGAAGLRWRAAQLIGTCSQNVAAIQEQVLGLGALRKLLRLLDRDACDTVRVKALFAISCLVREQEAGLLQFLRLDGFSVLMRAMQQQVQKLKVKSAFLLQNLLVGHPEHKGTLCSMGMVQQLVALVRTEHSPFHEHVLGALCSLVTDFPQGVRECREPELGLEELLRHRCQLLQQHEEYQEELEFCEKLLQTCFSSPADDSMDR |
|  | binds | GFP-HspBP1 (protein, UniProt Q9NZL4 1-359) MSDEGSRGSRLPLALPPASQGCSSGGGGGGSSAGGSGNSRPPRNLQGLLQMAITAGSEEPDPPPEPMSEERRQWLQEAMSAAFRGQREEVEQMKSCLRVLSQPMPPTAGEAEQAADQQEREGALELLADLCENMDNAADFCQLSGMHLLVGRYLEAGAAGLRWRAAQLIGTCSQNVAAIQEQVLGLGALRKLLRLLDRDACDTVRVKALFAISCLVREQEAGLLQFLRLDGFSVLMRAMQQQVQKLKVKSAFLLQNLLVGHPEHKGTLCSMGMVQQLVALVRTEHSPFHEHVLGALCSLVTDFPQGVRECREPELGLEELLRHRCQLLQQHEEYQEELEFCEKLLQTCFSSPADDSMDR |
